{"source": "PubChem BioAssay AID493014", "about": "(National Center for Advancing Translational Sciences (NCATS), 2011)", "assay": "qHTS Assay to Find Inhibitors of Chronic Active B-Cell Receptor Signaling", "conditions": "ABC-DLBCL IkBa-CBG/CBR reporter, luminescence ratio (green luciferase fused to IkBa over red control in TMD8 lymphoma cells), 4 h", "in_short": "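Cell line TMD8 (human ABC DLBCL), stably expressing tet-inducible CBG68-IkBa fusion and CBR; IMDM/0.5% FBS; cpd up to 46 uM; dox induction, 4 h, 37C/5% CO2; dual luminescence; green/red ratio; MG132 control.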", "key": {"[1]": {"conditions": "measured here: CBR red luminescence, cell number"}, "[2]": {"conditions": "measured here: IkBa-CBG green luminescence"}}, "note": "Some of the results follow. These are further read-outs of the screen, such as a control signal, another cell line or another target. No call is given for them. Compounds called inactive in the main read-out are mostly missing here. The note in brackets gives the kind of curve behind each potency; many fits are weak.", "data": [{"molecule": "CCCCC(=O)Nc1cccc(C(=O)Nc2ccccc2C(=O)O)c1", "values": [{"measurement": "AC50", "setting": "[1]", "value": "22.4 µM [falling, single point]"}]}, {"molecule": "O=C(Nc1ccc([N+](=O)[O-])cc1)Nc1ccc(N2CCOCC2)c2nonc12", "values": [{"measurement": "AC50", "setting": "[1]", "value": "15.8 µM [rising, single point]"}]}, {"molecule": "CCCCCCn1c(CN2CCN(Cc3ccccc3)CC2)nc2c1c(=O)n(C)c(=O)n2C", "values": [{"measurement": "AC50", "setting": "[1]", "value": "16.4 µM [falling, partial curve, poor fit]"}]}, {"molecule": "CCOC(=O)c1ccc(N2C(=O)C3C(/C=C/c4ccccc4)OC4(C(=O)c5ccccc5C4=O)C3C2=O)cc1", "note": "(stereo unspecified)", "values": [{"measurement": "AC50", "setting": "[1]", "value": "29.1 µM [rising, single point]"}]}, {"molecule": "O=C(CCCOc1ccccc1)Nc1ccc(Cl)c(S(=O)(=O)N2CCOCC2)c1", "values": [{"measurement": "AC50", "setting": "[1]", "value": "29.1 µM [falling, single point]"}]}, {"molecule": "COc1ccc(/C=C2/C(=O)OCc3cc(OC)c(OC)cc32)cc1", "values": [{"measurement": "AC50", "setting": "[2]", "value": "5.17 µM [falling, partial curve, poor fit]"}]}, {"molecule": "CCOc1cc(-c2c(C)c(C)nc(N)c2C#N)ccc1O", "values": [{"measurement": "AC50", "setting": "[1]", "value": "5.8 µM [falling, partial curve, poor fit]"}]}, {"molecule": "COc1cc(C(=O)NCC(=O)N2CCN(S(=O)(=O)c3cc(C)ccc3C)CC2)cc(OC)c1OC", "values": [{"measurement": "AC50", "setting": "[2]", "value": "11.2 µM [falling, partial curve, poor fit]"}]}, {"molecule": "CCOc1ccc2oc(-c3ccccc3)c(C(N)=O)c2c1", "values": [{"measurement": "AC50", "setting": "[1]", "value": "0.631 µM [rising, full curve, poor fit]"}]}, {"molecule": "O=C(CN(CC1CCCO1)C(=O)CCC(=O)Nc1ccccn1)NCC1CCCO1", "note": "(stereo unspecified)", "values": [{"measurement": "AC50", "setting": "[1]", "value": "6.51 µM [falling, single point]"}]}, {"molecule": "Cc1nc2cc(-c3cccc(F)c3)nn2c(C)c1CCC(=O)NC(C)c1ccc2c(c1)OCCO2", "note": "(stereo unspecified)", "values": [{"measurement": "AC50", "setting": "[1]", "value": "23.1 µM [falling, single point]"}]}, {"molecule": "COc1cccc(NC(=O)COC(=O)CC(NC(N)=O)c2ccc(Cl)cc2)c1", "note": "(stereo unspecified)", "values": [{"measurement": "AC50", "setting": "[1]", "value": "15.8 µM [falling, single point]"}]}, {"molecule": "CCC/C=C(\\CCC)C(NC(=O)Cc1ccccc1)c1ccc(C(=O)OC)cc1", "note": "(stereo unspecified)", "values": [{"measurement": "AC50", "setting": "[1]", "value": "16.4 µM [falling, single point]"}]}, {"molecule": "Cc1c(Cl)cccc1-n1c(SCC(=O)NCc2cccs2)nnc1-c1ccncc1", "values": [{"measurement": "AC50", "setting": "[1]", "value": "35.5 µM [falling, single point]"}]}, {"molecule": "O=C(NCc1ccco1)c1c2c(nc3ccccc13)CCC2", "values": [{"measurement": "AC50", "setting": "[1]", "value": "10 µM [falling, partial curve, poor fit]"}]}, {"molecule": "Cc1ccc(Cl)cc1N1CCN(C(=O)CCCn2c(=O)c3cccn3c3cccnc32)CC1", "values": [{"measurement": "AC50", "setting": "[1]", "value": "35.5 µM [falling, single point]"}]}, {"molecule": "COc1ccc(C2Cc3ccccc3C(=O)O2)cc1", "note": "(stereo unspecified)", "values": [{"measurement": "AC50", "setting": "[1]", "value": "0.82 µM [rising, full curve, poor fit]"}]}, {"molecule": "O=C(CCN1C(=O)/C(=C\\C=C\\c2ccccc2)SC1=S)Nc1ccc(C(=O)O)cc1", "values": [{"measurement": "AC50", "setting": "[1]", "value": "1.12 µM [falling, full curve]"}]}, {"molecule": "COc1ccc([N+](=O)[O-])cc1NC(=O)CCC(=O)c1cccs1", "values": [{"measurement": "AC50", "setting": "[1]", "value": "31.6 µM [rising, single point]"}]}, {"molecule": "CCOc1cc(NC(=S)Nc2ccc(Cl)cc2)c(OCC)cc1NC(C)=O", "values": [{"measurement": "AC50", "setting": "[1]", "value": "8.91 µM [rising, partial curve, poor fit]"}]}, {"molecule": "COc1ccc(NC(=O)c2cc(S(=O)(=O)N3CCCCC3)c[nH]2)cc1", "values": [{"measurement": "AC50", "setting": "[1]", "value": "0.112 µM [rising, full curve, poor fit]"}]}, {"molecule": "O=C(N/N=C/c1cccc(F)c1)c1c(O)c2ccccc2[nH]c1=O", "values": [{"measurement": "AC50", "setting": "[1]", "value": "0.0291 µM [falling, full curve]"}]}, {"molecule": "Cc1ccc(-c2ccnc3c(Cl)c(C)nn23)cc1", "values": [{"measurement": "AC50", "setting": "[1]", "value": "10 µM [rising, partial curve, poor fit]"}]}, {"molecule": "CCCCCCSc1nsc(NC(=O)CCC)n1", "values": [{"measurement": "AC50", "setting": "[1]", "value": "12.6 µM [rising, partial curve]"}]}, {"molecule": "COc1cccc(C2CC(=O)Nc3cc(OC)c(OC)c(OC)c32)c1OC", "note": "(stereo unspecified)", "values": [{"measurement": "AC50", "setting": "[1]", "value": "10 µM [rising, partial curve, poor fit]"}]}, {"molecule": "CC1CCCC(NC(=O)C2CCN(S(=O)(=O)N3CCCCC3)CC2)C1C", "note": "(stereo unspecified)", "values": [{"measurement": "AC50", "setting": "[1]", "value": "6.31 µM [rising, full curve, poor fit]"}]}, {"molecule": "Cc1cccc(Nc2nnc(SCC(=O)NCc3cccs3)s2)c1", "values": [{"measurement": "AC50", "setting": "[1]", "value": "0.708 µM [falling, full curve, poor fit]"}]}, {"molecule": "O=C(Nc1ccn(Cc2ccccc2)n1)c1cccc(F)c1", "values": [{"measurement": "AC50", "setting": "[1]", "value": "17.8 µM [falling, single point]"}]}, {"molecule": "COC(=O)c1ccccc1NC(=O)CSc1nnnn1C1CCCCC1", "values": [{"measurement": "AC50", "setting": "[1]", "value": "32.6 µM [falling, single point]"}]}, {"molecule": "COc1ccc(-c2nn(-c3ccccc3)cc2/C=C(/C#N)C(N)=O)cc1[N+](=O)[O-]", "values": [{"measurement": "AC50", "setting": "[1]", "value": "2.91 µM [rising, full curve, poor fit]"}]}, {"molecule": "COc1ccc2c(C)cc(SCC#N)nc2c1", "values": [{"measurement": "AC50", "setting": "[1]", "value": "15.8 µM [falling, partial curve, poor fit]"}]}, {"molecule": "FCCCOc1ccc(/C=N/OCc2ccc(Cl)cc2Cl)cc1", "values": [{"measurement": "AC50", "setting": "[1]", "value": "35.5 µM [rising, single point]"}]}, {"molecule": "CN(C)S(=O)(=O)c1cccc(NC(=S)N/N=C/c2cc(Br)ccc2O)c1", "values": [{"measurement": "AC50", "setting": "[1]", "value": "12.6 µM [falling, partial curve, poor fit]"}]}, {"molecule": "COc1ccccc1N1CCN(C(=O)c2cc(-c3ccc(F)cc3)[nH]c2C)CC1", "values": [{"measurement": "AC50", "setting": "[1]", "value": "11.2 µM [falling, partial curve]"}]}, {"molecule": "CC(C)c1ccc(CN2CC(C(=O)O)CC2=O)cc1", "note": "(stereo unspecified)", "values": [{"measurement": "AC50", "setting": "[1]", "value": "8.2 µM [falling, partial curve, poor fit]"}]}, {"molecule": "COc1ccccc1-c1cc(C(=O)NCCN2CCOCC2)no1", "values": [{"measurement": "AC50", "setting": "[1]", "value": "10 µM [falling, partial curve, poor fit]"}]}, {"molecule": "CCn1c(SCC(=O)N2CCN(c3ccccc3)CC2)nc2c([nH]c3ccccc32)c1=O", "values": [{"measurement": "AC50", "setting": "[1]", "value": "0.794 µM [falling, full curve, poor fit]"}]}, {"molecule": "CCC1CCCCN1c1cc(C)nc2cc(-c3cccc(C)c3)nn12", "note": "(stereo unspecified)", "values": [{"measurement": "AC50", "setting": "[1]", "value": "18.4 µM [rising, single point]"}]}, {"molecule": "CCN(c1ccccc1)c1nc2ccsc2c(=O)s1", "values": [{"measurement": "AC50", "setting": "[1]", "value": "4.11 µM [rising, full curve]"}]}, {"molecule": "CC1(C)CC(N2CCN(C(c3ccccc3)c3ccccc3)CC2)=CC(=[N+]2CCCCC2)C1", "values": [{"measurement": "AC50", "setting": "[1]", "value": "10 µM [falling, partial curve]"}]}, {"molecule": "CCN1/C(=C/c2ccc3cc(C)cc(C)c3[n+]2CC)Sc2cc(C)ccc21", "values": [{"measurement": "AC50", "setting": "[1]", "value": "35.5 µM [falling, single point]"}]}]}
